Experimental data as given in US20200085912A1.
These are yes or no findings as the source states them, for the method shown. For part of these data: Binding seen in cells or lysates may run through a third protein. Some binding calls cover weakened binding; strength is not graded here. Blank lines part the entries; values can stand above or below the binder they belong to.

The chains behind the UniProt entries cited, without tags or fusion partners. Residues count along the entry.
UniProt P50284, residues 31-415: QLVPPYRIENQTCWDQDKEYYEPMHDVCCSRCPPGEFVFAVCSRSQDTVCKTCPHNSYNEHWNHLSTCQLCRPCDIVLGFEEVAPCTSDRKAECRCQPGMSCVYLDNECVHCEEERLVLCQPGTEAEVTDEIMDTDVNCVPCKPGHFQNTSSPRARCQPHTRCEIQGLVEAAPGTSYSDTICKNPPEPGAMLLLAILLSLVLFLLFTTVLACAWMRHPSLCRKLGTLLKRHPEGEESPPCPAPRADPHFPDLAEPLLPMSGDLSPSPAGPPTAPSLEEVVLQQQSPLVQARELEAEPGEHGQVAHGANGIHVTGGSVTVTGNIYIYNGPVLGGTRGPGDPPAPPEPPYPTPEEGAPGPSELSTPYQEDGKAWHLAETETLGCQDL

What was measured:
[1] = target: LTβ receptor (LTβR) (mouse) (UniProt P50284); assay: co-IP with anti-LTβR from unstimulated LEC lysates, anti-TRAF3 immunoblot
[2] = target: LTβ receptor (LTβR) (mouse) (UniProt P50284); assay: co-IP with anti-LTβR from LEC lysates, anti-TRAF3 immunoblot
[3] = target: LTβ receptor (LTβR) (mouse) (UniProt P50284); assay: co-IP of LTβR complex from LEC
[4] = target: LTβ receptor (LTβR) (mouse) (UniProt P50284); assay: model legend referring to co-IP / blots of FIG. 3B, 3C, 3E
[5] = target: LTβ receptor (LTβR) (mouse) (UniProt P50284); assay: biochemical analyses of LEC (FIG. 1 and FIG. 3)
[6] = target: LTβ receptor (LTβR) (mouse) (UniProt P50284); assay: co-IP with anti-LTβR from lysates of anti-LTβR mAb-stimulated LEC, anti-TRAF2 immunoblot
[7] = target: LTβ receptor (LTβR) (mouse) (UniProt P50284); assay: model legend referring to the filing's blots
[8] = target: LTβ receptor (LTβR) (mouse) (UniProt P50284); assay: co-IP of LTβR complex from LTβR-stimulated LEC

binding [1]: binds
binding [2]: binds
binding [3]: binds
binding [4]: binds
binding [5]: binds
B1: TNF receptor-associated factor-3 (TRAF3) (protein, mouse, UniProt Q60803 1-567, looked up)
chain: MESSKKMDAAGTLQPNPPLKLQPDRGAGSVLVPEQGGYKEKFVKTVEDKYKCEKCRLVLCNPKQTECGHRFCESCMAALLSSSSPKCTACQESIIKDKVFKDNCCKREILALQVYCRNEGRGCAEQLTLGHLLVHLKNECQFEELPCLRADCKEKVLRKDLRDHVEKACKYREATCSHCKSQVPMIKLQKHEDTDCPCVVVSCPHKCSVQTLLRSELSAHLSECVNAPSTCSFKRYGCVFQGTNQQIKAHEASSAVQHVNLLKEWSNSLEKKVSLLQNESVEKNKSIQSLHNQICSFEIEIERQKEMLRNNESKILHLQRVIDSQAEKLKELDKEIRPFRQNWEEADSMKSSVESLQNRVTELESVDKSAGQAARNTGLLESQLSRHDQMLSVHDIRLADMDLRFQVLETASYNGVLIWKIRDYKRRKQEAVMGKTLSLYSQPFYTGYFGYKMCARVYLNGDGMGKGTHLSLFFVIMRGEYDALLPWPFKQKVTLMLMDQGSSRRHLGDAFKPDPNSSSFKKPTGEMNIASGCPVFVAQTVLENGTYIKDDTIFIKVIVDTSDLPDP

binding [5]: binds
binding [6]: binds
binding [7]: binds
binding [8]: binds
B2: TNF receptor-associated factor 2 (TRAF2) (protein, mouse, UniProt P39429 2-501, looked up)
chain: AAASVTSPGSLELLQPGFSKTLLGTRLEAKYLCSACKNILRRPFQAQCGHRYCSFCLTSILSSGPQNCAACVYEGLYEEGISILESSSAFPDNAARREVESLPAVCPNDGCTWKGTLKEYESCHEGLCPFLLTECPACKGLVRLSEKEHHTEQECPKRSLSCQHCRAPCSHVDLEVHYEVCPKFPLTCDGCGKKKIPRETFQDHVRACSKCRVLCRFHTVGCSEMVETENLQDHELQRLREHLALLLSSFLEAQASPGTLNQVGPELLQRCQILEQKIATFENIVCVLNREVERVAVTAEACSRQHRLDQDKIEALSNKVQQLERSIGLKDLAMADLEQKVSELEVSTYDGVFIWKISDFTRKRQEAVAGRTPAIFSPAFYTSRYGYKMCLRVYLNGDGTGRGTHLSLFFVVMKGPNDALLQWPFNQKVTLMLLDHNNREHVIDAFRPDVTSSSFQRPVSDMNIASGCPLFCPVSKMEAKNSYVRDDAIFIKAIVDLTGL
